Laboratory results: patent publication US5434133A (Suntory Limited, priority 1991, dated 1995)
Strings that start with PEPTIDE1 are HELM notation: dots part the residues, brackets hold end groups and non-standard residues.

Experiment: general procedure: Boc solid-phase peptide synthesis; Boc-Tyr(Br-Z)-O-CH2-PAM resin; DCC/HOBt
Conditions: whole synthesis

## PEPTIDE1{G.L.S.K.G.C.F.G.G.R.M.D.R.I.G.A.Q.S.E.L.E.C.N.S.F.R.Y}$PEPTIDE1,PEPTIDE1,6:R3-22:R3$$$V2.0
Scale 0.5 mmol
  isolated mass: 150 mg
Scale of the general procedure 0.5 mmol
  final purity (method not given): at least 97%
